In publication PMC5540934 one finds binding data, which are given here for 2 substances.

The chains behind the UniProt entries cited, without tags or fusion partners. Residues count along the entry.
UniProt P16092, residues 22-822: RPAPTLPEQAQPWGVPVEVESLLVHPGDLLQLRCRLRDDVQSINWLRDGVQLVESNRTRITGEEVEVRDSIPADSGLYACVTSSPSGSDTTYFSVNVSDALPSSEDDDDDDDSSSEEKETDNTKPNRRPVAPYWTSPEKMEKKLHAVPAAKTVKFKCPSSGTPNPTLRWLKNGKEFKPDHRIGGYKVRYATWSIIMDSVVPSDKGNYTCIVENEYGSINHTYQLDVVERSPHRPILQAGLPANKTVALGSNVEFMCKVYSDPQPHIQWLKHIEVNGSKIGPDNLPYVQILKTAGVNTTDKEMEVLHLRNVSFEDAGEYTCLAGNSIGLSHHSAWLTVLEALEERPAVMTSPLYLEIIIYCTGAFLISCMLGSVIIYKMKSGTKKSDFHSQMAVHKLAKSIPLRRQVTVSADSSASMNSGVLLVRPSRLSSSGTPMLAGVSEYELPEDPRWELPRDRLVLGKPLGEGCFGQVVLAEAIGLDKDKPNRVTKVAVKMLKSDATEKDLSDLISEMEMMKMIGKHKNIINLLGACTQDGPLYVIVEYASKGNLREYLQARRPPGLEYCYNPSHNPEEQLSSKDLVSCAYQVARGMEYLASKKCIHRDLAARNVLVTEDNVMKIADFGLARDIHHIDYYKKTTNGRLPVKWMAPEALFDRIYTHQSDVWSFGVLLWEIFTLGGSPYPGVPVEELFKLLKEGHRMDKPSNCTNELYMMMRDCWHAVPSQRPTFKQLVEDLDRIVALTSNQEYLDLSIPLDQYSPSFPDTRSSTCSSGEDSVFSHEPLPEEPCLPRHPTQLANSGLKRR
UniProt P11362, residues 22-157: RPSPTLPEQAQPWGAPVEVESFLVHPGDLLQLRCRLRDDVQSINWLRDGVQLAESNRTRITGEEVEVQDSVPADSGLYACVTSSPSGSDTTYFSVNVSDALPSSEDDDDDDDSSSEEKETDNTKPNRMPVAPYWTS

These are yes or no findings as the source states them, for the method shown. For part of these data: Binding seen in cells or lysates may run through a third protein. Some results given as binding are weak or reduced against the parent protein; the word gives no strength.

Assay [1] addresses FGFR1 of NIH3T3 cells (mouse (endogenous in NIH3T3)) (UniProt P16092). The assay is described as follows: cross-linking; serum starved NIH3T3 cells with FGF1 (200 ng/ml), heparin (20 U/ml), scFvD2 (90 nM) or scFvD2-Fc (90 nM), 5 min 37 °C; DSS 5 mM, 30 min on ice; FGFR1 immunoprecipitated (sc-121) and blotted.
Assay [2] has the same target. The experiment in a line: native gel or EMSA; 2D BN/SDS-PAGE; serum starved NIH3T3 cells untreated or with FGF1 (300 ng/ml, heparin 30 U/ml), scFvD2 or scFvD2-Fc, 10 min 37 °C; 2% digitonin; 4-13% BN-PAGE, then SDS-PAGE and anti-FGFR1 blot. Background: A gel shift assay detects complexes by their altered migration in electrophoresis.
Assay [3] deals with GST-tagged domain D1 of FGFR1 (GST-D1) (UniProt P11362). The assay is described as follows: pull-down; GST-D1 (20 µg) on Glutathione Sepharose; NusA-His-D1 preincubated 1 h 4 °C alone or with 90 nM scFvD2 or scFvD2-Fc, then 1 h 4 °C with the beads; washes 50 mM Tris, 150 mM NaCl, 0.05% Triton X-100, pH 7.4; Western blot; both purified. Background: In western blotting, separated proteins are transferred to a membrane and probed.

On to “FGFR1 of NIH3T3 cells (from UniProt P16092 22-822) (receptor)”, for which the binding entry in assay [1] and in assay [2] was “binds” each time.

As for “His-tagged NusA fusion of domain D1 of FGFR1 (NusA-His-D1) (from UniProt P11362 22-157) (domain or fragment)”, in assay [3], the binding result is listed as “binds weakly”.
